# PubChem BioAssay AID686921 (National Center for Advancing Translational Sciences (NCATS), 2013)
# Inconclusive means that the source gave no clear call. Such entries were picked first, then a sample of the others. Potencies beside an inconclusive call are fits to weak or partial responses and may not hold up. The source made the active and inactive calls. The call rests on the fitted dose curve; in most records, active means well fitted curve in the direction sought with a large enough effect; inconclusive means small, poorly fitted or top-dose-only effect, or another doubt; inactive means no such curve, though single readings can be large or run the other way.
# Experiment: qHTS screen for inhibitors of ELG1-dependent DNA repair in human embryonic kidney (HEK293T) cells expressing luciferase-tagged ELG1: 5FU Viability Assay for probe SAR
# Details: HEK293T ELG1-luc, CellTiter-Glo viability, 16 h; series mostly up to 46.1 µM; activity change, negative = inhibition: at the top concentration
# Description: Cancer cells divide rapidly compared to normal cells in the body. During cell division, cancer cells need to duplicate their genome by DNA replication. The failure of genome duplication leads to cancer cells' death. Therefore, inhibitors of DNA replication could specifically kill cancer cells. Based on this concept, many chemotherapeutic agents were developed and have been used to treat cancer patients. However, there are a limited number of agents available in the clinical setting, and some of those that do exist have low efficacy and severe side effects. Therefore, if we can find the compounds that effectively block DNA replication either by directly damaging DNA or by inhibiting other cellular mechanisms, the options for cancer treatment will be broadened. With this in mind, we developed a quantitative high-throughput ELG1-luciferase reporter gene assay. Small molecules that specifically block ELG1 function in response to DNA damage can be identified by monitoring the suppression of luciferase activity. Since ELG1 defines a pathway for repairing DNA damage, agents blocking ELG1 function can be used to sensitize cancer cells to chemotherapeutic agents whose mechanism of action involves the induction of DNA damage. Cytotoxicity of the active compounds in the ELG1 qHTS assay (AID 493107) was assessed using the CellTiter-Glo Luminescent Cell Viability Assay kit (Promega, USA). CellTiter-Glo measures the intracellular ATP present in metabolically active cells using Ultra-Glo as the luciferase to detect ATP levels. In brief, the luciferase in the buffer catalyzes the oxidation of luciferin to oxyluciferin and light which is dependent on ATP. […] DMSO and wells with media alone were used as positive and negative controls, respectively. Inactivity to this assay is the desirable outcome. NIH Molecular Libraries Probe Production Network [MLPCN] NIH Chemical Genomics Center [NCGC] MLPCN Grant: R03 MH092164 Assay Provider: Kyungjae Myung, NHGRI, NIH
# ELG1-luc HEK293T cells will be seeded in 1536-well plates at a density of 2,000 cells/well. Approximately 5 hours after plating, compounds will be added to the plate by pin tool transfer and 5-fluorouridine will be added by FRD dispenser (final concentration of 5-fluorouridine =10 µM). 16 hours following the addition of the compounds, cell viability will be measured using CellTiter Glo.
Compound,"activity change, negative = inhibition",Potency
O=c1cc(-c2nc(Nc3ccc(F)c(F)c3)c3ccccc3n2)cc[nH]1,inactive: 31.2%,
O=[N+]([O-])c1ccc(-c2nc(Nc3ccc(F)c(F)c3)c3ccccc3n2)cc1,inactive: -1.93%,
CN1CCN(c2cc(-c3nc(Nc4ccc(F)c(F)c4)c4ccccc4n3)ccn2)CC1,,"inconclusive: 37.2 µM [inhibitor, single point]"
Fc1cc(Nc2nc(-c3ccncc3)nc3ccccc23)ccc1C(F)(F)F,,"inconclusive: 8.33 µM [inhibitor, single point]"
